Data on eight substances can be found in patent US4673732 (dated 1987).

The nature of one data set: general procedure: solution-phase peptide synthesis; azide method (isoamylnitrite/HCl), p-nitrophenyl active esters (ONp), mixed anhy. The conditions noted are these: coupling step.
Z(OMe)-Ala-Gln-Ser-Gly-OBzl displayed a step yield of 80%.

Regarding Z(OMe)-Asn-Ser-Phe-Arg(Mts)-Tyr-OBzl, the step yield came out at 79%. “Z(OMe)-Cys(Tmb)-Asn-Ser-Phe-Arg(Mts)-Tyr-OBzl” gave a step yield of 83%. Turning to “Z(OMe)-Leu-Gly-Cys(Tmb)-Asn-Ser-Phe-Arg(Mts)-Tyr-OBzl”, the step yield was determined as 91%. The substance Z(OMe)-Ser-Phe-Arg(Mts)-Tyr-OBzl yielded a step yield of 76%.

Staying with this data set, now noted: late stage modification step.
Turning to “H-Ala-Gln-Ser-Gly-Leu-Gly-Cys(SH)-Asn-Ser-Phe-Arg-Tyr-OH”, the step yield was found to be 33%. On to “H-Ile-Gly-Ala-Gln-Ser-Gly-Leu-Gly-Cys(SH)-Asn-Ser-Phe-Arg-Tyr-OH”, for which the step yield was determined as 80%.

On to Z(OMe)-Ala-Gln-Ser-Gly-NHNH2, for which the step yield is given as 96%.
